# Experimental data published in patent US20150158934A1.
# No constants are given. Whether binding was seen depends on the method and setting. Binding calls can cover weak binding; strength is not graded here.
# B1: L8Cj3 (VHH)
# VHH: EVQLVESGGGLVQAGGFLRLSCELRGSIFNQYAMAWFRQAPGKEREFVAGMGAVPHYGEFVKGRFTISRDNAKSTVYLQMSSLKPEDTAIYFCARSKSTYISYNSNGYDYWGRGTQVTVSS
# Assays:
# [1] = target: HIV-1 Bal envelope protein (Env) on infected human monocyte-derived macrophages (Human immunodeficiency virus 1, strain Bal); experiment: immuno-gold electron microscopy on HIV-1 Bal infected human monocyte-derived macrophages; myc-tagged J3, anti-myc 9E10, rabbit anti-mouse, protein A gold [D00016 FIG. 10B; D00017 FIG. 10C]
# [2] = target: HIV-1 Bal envelope protein (Env) on infected human monocyte-derived macrophages (Human immunodeficiency virus 1, strain Bal); experiment: immunofluorescence on HIV-1 Bal infected human monocyte-derived macrophages; myc-tagged J3 detected with anti-myc 4A6 and Alexa 594 goat anti-mouse, with anti-p17 4C9 as HIV marker
binder,measurement,setting,value
B1,binding,[1],binds
same,binding,[2],binds
